Test results from PMC6234029.
These are yes or no findings as the source states them, for the method shown. In cells and extracts the contact can be indirect. Some results given as binding are weak or reduced against the parent protein; the word gives no strength.

Amino acid sequences for entries named in this document (tags omitted).
UniProt P41229: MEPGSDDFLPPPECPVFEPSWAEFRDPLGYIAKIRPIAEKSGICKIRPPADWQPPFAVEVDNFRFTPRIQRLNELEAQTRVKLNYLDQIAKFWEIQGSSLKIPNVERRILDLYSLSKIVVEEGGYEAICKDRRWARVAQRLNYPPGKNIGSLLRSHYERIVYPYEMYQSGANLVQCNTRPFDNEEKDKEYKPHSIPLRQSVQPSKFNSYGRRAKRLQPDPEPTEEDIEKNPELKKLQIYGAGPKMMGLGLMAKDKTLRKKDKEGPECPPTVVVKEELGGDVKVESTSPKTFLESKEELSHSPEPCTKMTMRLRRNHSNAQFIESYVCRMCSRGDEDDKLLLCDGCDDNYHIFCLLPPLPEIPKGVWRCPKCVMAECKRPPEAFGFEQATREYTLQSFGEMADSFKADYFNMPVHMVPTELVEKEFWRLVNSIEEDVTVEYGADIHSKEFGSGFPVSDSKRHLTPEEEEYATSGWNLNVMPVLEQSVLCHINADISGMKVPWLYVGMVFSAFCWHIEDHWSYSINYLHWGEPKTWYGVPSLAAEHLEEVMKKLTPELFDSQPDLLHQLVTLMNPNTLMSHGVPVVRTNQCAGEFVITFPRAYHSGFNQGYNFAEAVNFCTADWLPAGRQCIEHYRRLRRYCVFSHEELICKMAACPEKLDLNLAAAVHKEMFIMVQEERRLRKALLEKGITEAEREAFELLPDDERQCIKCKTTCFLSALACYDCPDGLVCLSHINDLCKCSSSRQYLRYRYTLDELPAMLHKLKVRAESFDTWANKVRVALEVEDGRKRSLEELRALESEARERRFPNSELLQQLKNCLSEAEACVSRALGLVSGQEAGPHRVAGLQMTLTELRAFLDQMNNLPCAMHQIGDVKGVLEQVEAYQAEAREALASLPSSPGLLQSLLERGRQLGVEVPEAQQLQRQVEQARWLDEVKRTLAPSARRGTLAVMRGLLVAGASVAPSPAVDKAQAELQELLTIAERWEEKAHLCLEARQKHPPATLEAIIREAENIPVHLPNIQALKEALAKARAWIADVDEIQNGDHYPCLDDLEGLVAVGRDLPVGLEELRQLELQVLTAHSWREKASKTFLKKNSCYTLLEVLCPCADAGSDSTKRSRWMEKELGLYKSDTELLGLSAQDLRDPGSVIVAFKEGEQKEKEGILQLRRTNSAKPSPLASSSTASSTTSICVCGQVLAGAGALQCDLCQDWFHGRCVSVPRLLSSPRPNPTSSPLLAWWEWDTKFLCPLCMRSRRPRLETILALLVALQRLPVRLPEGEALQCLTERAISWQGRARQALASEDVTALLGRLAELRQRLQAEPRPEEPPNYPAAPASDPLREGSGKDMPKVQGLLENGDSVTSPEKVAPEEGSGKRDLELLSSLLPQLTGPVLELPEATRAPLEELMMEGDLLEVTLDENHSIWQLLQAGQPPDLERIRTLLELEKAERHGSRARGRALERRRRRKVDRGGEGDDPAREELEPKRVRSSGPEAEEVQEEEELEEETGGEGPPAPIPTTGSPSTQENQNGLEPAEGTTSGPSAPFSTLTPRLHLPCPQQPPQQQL
UniProt Q86U86: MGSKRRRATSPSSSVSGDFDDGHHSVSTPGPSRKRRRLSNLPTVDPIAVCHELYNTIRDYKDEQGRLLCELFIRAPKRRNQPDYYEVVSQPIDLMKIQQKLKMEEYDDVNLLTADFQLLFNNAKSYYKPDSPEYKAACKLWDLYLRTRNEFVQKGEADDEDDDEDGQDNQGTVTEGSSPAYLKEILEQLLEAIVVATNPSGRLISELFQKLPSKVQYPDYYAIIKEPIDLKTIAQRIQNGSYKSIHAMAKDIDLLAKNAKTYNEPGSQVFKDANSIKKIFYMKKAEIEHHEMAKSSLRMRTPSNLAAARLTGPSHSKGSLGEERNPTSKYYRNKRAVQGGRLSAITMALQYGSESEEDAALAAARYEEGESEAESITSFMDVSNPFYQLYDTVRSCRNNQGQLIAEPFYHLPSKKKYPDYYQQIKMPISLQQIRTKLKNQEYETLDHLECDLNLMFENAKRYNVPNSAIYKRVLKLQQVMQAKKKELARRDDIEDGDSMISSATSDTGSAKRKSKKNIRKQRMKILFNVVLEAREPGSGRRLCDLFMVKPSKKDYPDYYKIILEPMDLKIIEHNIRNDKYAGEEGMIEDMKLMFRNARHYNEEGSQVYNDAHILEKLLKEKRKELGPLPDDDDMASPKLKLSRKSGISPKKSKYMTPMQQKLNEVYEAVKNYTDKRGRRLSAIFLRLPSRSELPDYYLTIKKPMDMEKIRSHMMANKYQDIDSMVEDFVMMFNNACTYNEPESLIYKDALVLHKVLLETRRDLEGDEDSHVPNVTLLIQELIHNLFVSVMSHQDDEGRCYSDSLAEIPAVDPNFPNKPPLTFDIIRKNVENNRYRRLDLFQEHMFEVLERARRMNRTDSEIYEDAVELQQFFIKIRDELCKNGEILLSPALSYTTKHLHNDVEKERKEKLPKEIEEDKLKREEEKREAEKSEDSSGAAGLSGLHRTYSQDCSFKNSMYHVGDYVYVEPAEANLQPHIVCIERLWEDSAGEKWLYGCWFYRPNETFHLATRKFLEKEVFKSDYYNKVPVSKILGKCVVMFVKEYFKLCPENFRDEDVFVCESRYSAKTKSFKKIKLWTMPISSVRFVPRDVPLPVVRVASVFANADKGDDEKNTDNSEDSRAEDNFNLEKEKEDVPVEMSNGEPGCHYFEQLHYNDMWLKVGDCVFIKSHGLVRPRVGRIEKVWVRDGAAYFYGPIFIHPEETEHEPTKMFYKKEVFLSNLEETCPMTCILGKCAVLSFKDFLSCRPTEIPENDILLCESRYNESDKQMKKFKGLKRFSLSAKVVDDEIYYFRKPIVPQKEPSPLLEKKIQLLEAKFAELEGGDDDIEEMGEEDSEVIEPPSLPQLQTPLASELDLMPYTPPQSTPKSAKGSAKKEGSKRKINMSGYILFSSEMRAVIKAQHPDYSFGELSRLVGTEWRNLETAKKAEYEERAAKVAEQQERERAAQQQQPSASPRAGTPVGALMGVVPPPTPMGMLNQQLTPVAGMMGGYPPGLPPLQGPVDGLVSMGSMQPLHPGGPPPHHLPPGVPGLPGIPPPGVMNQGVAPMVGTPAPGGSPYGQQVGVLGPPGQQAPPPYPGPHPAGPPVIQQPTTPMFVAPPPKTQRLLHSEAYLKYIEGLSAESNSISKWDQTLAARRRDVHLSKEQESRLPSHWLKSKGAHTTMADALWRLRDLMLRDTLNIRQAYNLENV
UniProt P51532: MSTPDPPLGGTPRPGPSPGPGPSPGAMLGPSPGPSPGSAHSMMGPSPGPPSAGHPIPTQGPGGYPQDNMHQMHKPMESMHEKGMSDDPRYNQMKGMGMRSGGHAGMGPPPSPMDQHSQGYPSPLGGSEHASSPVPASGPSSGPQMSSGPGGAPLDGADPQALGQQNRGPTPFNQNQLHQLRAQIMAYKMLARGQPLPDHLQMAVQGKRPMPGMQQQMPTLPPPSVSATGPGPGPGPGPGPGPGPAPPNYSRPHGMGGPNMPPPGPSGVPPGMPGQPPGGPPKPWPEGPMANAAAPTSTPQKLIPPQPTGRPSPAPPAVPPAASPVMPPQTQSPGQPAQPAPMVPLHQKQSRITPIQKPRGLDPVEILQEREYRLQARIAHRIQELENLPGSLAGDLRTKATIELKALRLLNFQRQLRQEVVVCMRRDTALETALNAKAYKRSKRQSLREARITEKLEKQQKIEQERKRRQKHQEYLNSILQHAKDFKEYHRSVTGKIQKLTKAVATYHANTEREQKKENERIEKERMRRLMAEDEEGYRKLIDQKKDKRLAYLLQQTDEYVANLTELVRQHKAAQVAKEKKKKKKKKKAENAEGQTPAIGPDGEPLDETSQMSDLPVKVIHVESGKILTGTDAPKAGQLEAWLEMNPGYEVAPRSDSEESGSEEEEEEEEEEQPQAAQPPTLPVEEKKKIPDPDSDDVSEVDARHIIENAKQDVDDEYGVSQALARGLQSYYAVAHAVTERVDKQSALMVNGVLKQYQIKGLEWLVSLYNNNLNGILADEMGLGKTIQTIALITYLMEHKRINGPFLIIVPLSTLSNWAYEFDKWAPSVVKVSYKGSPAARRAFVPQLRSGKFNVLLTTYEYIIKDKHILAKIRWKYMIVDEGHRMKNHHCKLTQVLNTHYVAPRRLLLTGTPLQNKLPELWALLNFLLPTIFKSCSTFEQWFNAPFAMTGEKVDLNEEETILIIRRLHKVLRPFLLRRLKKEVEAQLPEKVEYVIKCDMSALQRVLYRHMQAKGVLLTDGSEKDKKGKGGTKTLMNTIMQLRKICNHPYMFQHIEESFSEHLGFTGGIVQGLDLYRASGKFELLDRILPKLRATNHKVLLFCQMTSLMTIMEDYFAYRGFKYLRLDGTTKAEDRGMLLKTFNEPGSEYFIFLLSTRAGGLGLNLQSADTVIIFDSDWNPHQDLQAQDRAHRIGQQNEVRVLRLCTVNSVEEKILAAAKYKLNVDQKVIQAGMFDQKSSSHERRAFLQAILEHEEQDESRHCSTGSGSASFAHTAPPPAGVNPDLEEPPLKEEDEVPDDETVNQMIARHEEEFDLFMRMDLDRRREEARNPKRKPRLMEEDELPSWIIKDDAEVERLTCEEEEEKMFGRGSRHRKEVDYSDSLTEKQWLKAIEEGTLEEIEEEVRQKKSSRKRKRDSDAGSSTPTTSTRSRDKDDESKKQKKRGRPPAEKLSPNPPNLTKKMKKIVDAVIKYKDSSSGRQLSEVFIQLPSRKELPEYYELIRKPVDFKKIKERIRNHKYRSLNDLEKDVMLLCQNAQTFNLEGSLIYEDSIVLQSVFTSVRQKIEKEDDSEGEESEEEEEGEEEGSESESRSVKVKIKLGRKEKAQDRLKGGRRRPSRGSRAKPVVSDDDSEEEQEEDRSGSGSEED
UniProt Q8TAQ2: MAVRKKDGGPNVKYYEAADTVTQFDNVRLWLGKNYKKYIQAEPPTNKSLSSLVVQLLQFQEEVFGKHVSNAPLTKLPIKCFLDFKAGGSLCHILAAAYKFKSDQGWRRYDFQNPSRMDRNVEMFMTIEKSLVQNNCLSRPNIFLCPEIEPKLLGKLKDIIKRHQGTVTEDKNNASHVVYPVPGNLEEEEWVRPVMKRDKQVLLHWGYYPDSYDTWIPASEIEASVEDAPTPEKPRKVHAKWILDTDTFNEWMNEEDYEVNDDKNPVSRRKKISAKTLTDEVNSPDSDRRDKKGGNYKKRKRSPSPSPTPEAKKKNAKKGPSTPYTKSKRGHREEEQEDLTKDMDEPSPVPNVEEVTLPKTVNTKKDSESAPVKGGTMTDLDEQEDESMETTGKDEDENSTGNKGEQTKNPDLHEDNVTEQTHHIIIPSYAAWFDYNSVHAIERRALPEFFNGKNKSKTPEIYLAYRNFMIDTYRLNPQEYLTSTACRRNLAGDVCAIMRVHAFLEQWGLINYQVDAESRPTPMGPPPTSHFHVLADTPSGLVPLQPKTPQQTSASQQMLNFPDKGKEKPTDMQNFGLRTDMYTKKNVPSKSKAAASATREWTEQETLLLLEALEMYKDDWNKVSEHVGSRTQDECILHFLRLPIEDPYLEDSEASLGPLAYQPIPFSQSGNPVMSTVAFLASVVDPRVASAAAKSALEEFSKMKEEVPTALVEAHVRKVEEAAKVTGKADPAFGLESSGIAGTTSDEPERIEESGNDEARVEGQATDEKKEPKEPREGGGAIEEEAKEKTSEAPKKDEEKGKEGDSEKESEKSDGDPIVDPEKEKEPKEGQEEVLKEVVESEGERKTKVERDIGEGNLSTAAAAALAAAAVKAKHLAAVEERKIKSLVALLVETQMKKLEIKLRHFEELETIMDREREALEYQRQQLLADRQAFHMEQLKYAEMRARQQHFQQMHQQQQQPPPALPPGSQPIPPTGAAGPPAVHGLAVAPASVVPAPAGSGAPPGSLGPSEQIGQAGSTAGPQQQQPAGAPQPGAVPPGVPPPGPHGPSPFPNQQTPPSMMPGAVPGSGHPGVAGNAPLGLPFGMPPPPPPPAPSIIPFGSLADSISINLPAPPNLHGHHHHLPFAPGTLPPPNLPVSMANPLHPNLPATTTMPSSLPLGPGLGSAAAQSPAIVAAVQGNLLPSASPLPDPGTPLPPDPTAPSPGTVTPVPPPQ
UniProt Q969G3: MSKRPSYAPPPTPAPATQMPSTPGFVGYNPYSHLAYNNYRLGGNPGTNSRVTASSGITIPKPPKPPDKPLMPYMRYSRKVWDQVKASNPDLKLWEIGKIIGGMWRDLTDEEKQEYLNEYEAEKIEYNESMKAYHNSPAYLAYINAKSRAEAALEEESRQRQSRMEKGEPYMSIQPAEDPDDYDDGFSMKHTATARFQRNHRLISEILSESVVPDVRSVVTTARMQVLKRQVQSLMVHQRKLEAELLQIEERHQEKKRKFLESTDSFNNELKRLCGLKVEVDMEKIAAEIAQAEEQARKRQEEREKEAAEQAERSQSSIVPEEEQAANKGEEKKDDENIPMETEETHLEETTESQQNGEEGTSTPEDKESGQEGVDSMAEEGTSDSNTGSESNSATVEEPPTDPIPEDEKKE

What was measured:
[1] = biological target: Flag-KDM5C (human) (human) (UniProt P41229); test: co-IP; Flag-PBRM1 or Flag-KDM5C transfected into HEK293T cells; EBC lysates; immunoprecipitation, immunoblot of endogenous partners
[2] = biological target: KDM5C expressed from a plasmid together with PBRM1 (Figure 4A) (human) (UniProt P41229); test: co-IP; PBRM1 and KDM5C both expressed from plasmids in HEK293T cells; EBC lysates (50 mM Tris pH 8.0, 120 mM NaCl, 0.5% NP-40); immunoprecipitation of either protein, immunoblot
[3] = biological target: Flag-PBRM1 (human), full-length PBRM1 in p3xFlag-CMV10 (human) (UniProt Q86U86); test: co-IP; Flag-PBRM1 or Flag-KDM5C transfected into HEK293T cells; EBC lysates; immunoprecipitation, immunoblot of endogenous partners

binding [1]	binding [2]	binding [3]	Substance
binds			BRG1 (from UniProt P51532 1-1647)
binds			BAF170 (from UniProt Q8TAQ2 1-1214)
	binds		PBRM1 expressed from a plasmid together with KDM5C (Figure 4A) (from UniProt Q86U86 1-1689)
no binding		binds	BAF57 (from UniProt Q969G3 1-411)
binds			endogenous PBRM1 (from UniProt Q86U86 1-1689)
